Data as given in patent publication US20250327081.
For some assays here: Where cells or extracts were used, other partners may take part. For some assays here: The exact form of at least one protein or probe is not confirmed. For some assays here: Negatives hold for the conditions tested.

How the values were obtained:
Assay in all cases: binding assay
[1] = molecular target: TDP-43 full-length eGFP fusion (UniProt Q13148); settings: 2'-F at cytosines 1 and 9; HEK293T confocal co-localisation, Manders' overlap 0.85-0.89; protein in cells; protein details: eGFP (N-terminal, pEGFP C1); label: 3'-Atto590; variant of Apt-1
[2] = molecular target: TDP-43 aggregates in ALS tissue or CSF (Homo sapiens) (UniProt Q13148); settings: RNA with 2'-F cytosines at positions 1 and 9, 3'-Atto590 (library chemistry); imaging of aggregates in ALS motor cortex and CSF; protein in an extract; label: Atto590; variant of Apt-1
[3] = molecular target: TDP-43 construct (RRM1-2) (UniProt Q13148); settings: RNA with 2'-F cytosines at positions 1 and 9, 3'-Atto590 (library chemistry); AD-PAINT TIRF imaging of aggregates, 1 nM aptamer in PBS; purified recombinant protein; label: Atto590; variant of Apt-1
alpha-synuclein = alpha-synuclein (UniProt P37840); settings: RNA with 2'-F cytosines at positions 1 and 9, 3'-Atto590 (library chemistry); aggregates and oligomers; TIRF imaging; purified recombinant protein; label: Atto590; variant of Apt-1
Amyloid-beta-42 = Amyloid-beta-42 (UniProt P05067); settings: RNA with 2'-F cytosines at positions 1 and 9, 3'-Atto590 (library chemistry); aggregates and oligomers; TIRF imaging; purified recombinant protein; label: Atto590; variant of Apt-1

Sequence: CGGUGUUGCU [Apt-1 2'-F Atto590]
- binding result [1]: binds

Sequence: CGGUGUUGCU [Apt-1 Atto590]
- binding result [2]: binds
- binding result [3]: binds
- binding result (alpha-synuclein): no binding
- binding result (Amyloid-beta-42): no binding
